# Structures can show the parent of a compound that is named as a salt. Some of the results follow. The calls rarely recur for the same compound in another form.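 Kinases were expressed as nanoluciferase fusions in K562 cells and luminescence was read every 4 h between 2 and 18 h as percent of control, DMSO set to 100% and a positive control to 0%. A time point counts as decreased when the signal drops significantly (2 sigma). The hit call is the authors' own, does not follow from the count of time points alone, and its rule is not shown.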
# Target: RAF1 (UniProt P04049)
# Assay: kinase-Nluc reporter destabilization hit call (1 = scored as downregulated) (binary); higher = compound decreases kinase abundance
# Conditions: K562; 2-18 h
row,Structure (SMILES),kinase-Nluc reporter destabilization hit call
1,CC(=O)NC1CC(n2cnc(NC(=O)Cc3ccc4ccccc4c3)c2)C1 (configuration not stated) (10 µM),inactive: 0
2,O=C(CSC1=NCCN1)NC1CCCCCC1 [ICCB-19 (hydrochloride)] (2.5 µM),inactive: 0
3,N#Cc1c(C2CCNCC2)cc(-c2c(O)cccc2OCC2CC2)nc1N [ACHP (Hydrochloride)] (10 µM),inactive: 0
4,CCOC(=O)N1CCN(C(=O)[C@H](Cc2cccc(C(=N)N)c2)NS(=O)(=O)c2c(C(C)C)cc(C(C)C)cc2C(C)C)CC1 (10 µM),inactive: 0
5,CN1CCN(c2cnc3c(C4CCN(C(=O)c5ccc(OC(F)(F)F)cc5N)CC4)ncnc3c2)CC1 (10 µM),inactive: 0
6,Cc1[nH]c(/C=C2\C(=O)Nc3ccccc32)c(C)c1CCC(=O)O [Orantinib] (10 µM),inactive: 0
7,Cn1nccc1Nc1nccc(-c2ccn([C@H](CO)c3ccc(Cl)c(F)c3)c(=O)c2)n1 [Ravoxertinib hydrochloride] (10 µM),inactive: 0
8,CCCCCCCCCCCCC/C=C/[C@@H](O)[C@@H](N)CO [D-erythro-Sphingosine] (2.5 µM),inactive: 0

# Target: RAF1_S257L (clone: RAF1_mut) (UniProt P04049)
# Assay: as above
# Conditions: K562; 2-18 h
row,Structure (SMILES),kinase-Nluc reporter destabilization hit call
1,CCS(=O)(=O)c1ncc(Cl)c(C(=O)N(Cc2ccc(Cl)cc2)Cc2ccco2)n1 (2.5 µM),inactive: 0
2,Nc1cc(C(F)(F)F)c(-c2cc(N3CCOCC3)nc(N3CCOCC3)n2)cn1 [Buparlisib (Hydrochloride)] (2.5 µM),inactive: 0
3,COc1cc(Nc2ncc(F)c(Nc3ccc4c(n3)N(COP(=O)(O)O)C(=O)C(C)(C)O4)n2)cc(OC)c1OC [Fostamatinib Disodium] (10 µM),inactive: 0
4,CC(C)(O)CNc1ncc(-c2ccnc(Nc3ccnc(Cl)c3)n2)c(CC2CC2)n1 (2.5 µM),inactive: 0
5,O=Nc1c(-c2c(O)[nH]c3ccc(I)cc23)[nH]c2ccccc12 [5-Iodo-indirubin-3'-monoxime] (10 µM),inactive: 0
6,Cc1cc(Nc2ncnc3ccc(NC4=NC(C)(C)CO4)cc23)ccc1Oc1ccn2ncnc2c1 [Tucatinib] (2.5 µM),inactive: 0
7,CCS(=O)(=O)Nc1ccc2[nH]c(O)c(C(=Nc3ccc(CN4CCCCC4)cc3)c3ccccc3)c2c1 [Hesperadin] (2.5 µM),active: 1
8,COc1cc2c(cc1OC)CN(S(=O)(=O)c1ccc(OC)c(N3CCN(C(=O)c4ccc(F)cc4C(F)(F)F)CC3)c1)CC2 (10 µM),inactive: 0
9,O=C([O-])c1cc2ccccc2c(Cc2c(O)c(C(=O)[O-])cc3ccccc23)c1O.[Na+].[Na+] [Pamoic acid (disodium)] (10 µM),inactive: 0
10,Cn1cc(-c2ccc3nnc(Sc4ccc5ncccc5c4)n3n2)cn1 (10 µM),inactive: 0
11,Cc1cc(O)c2c(c1)C(=O)c1cc(O)cc(O)c1C2=O [Emodin] (10 µM),inactive: 0
12,COc1cc2c(N3CCN(C(=O)Nc4ccc(OC(C)C)cc4)CC3)ncnc2cc1OCCCN1CCCCC1 [Tandutinib (hydrochloride)] (10 µM),inactive: 0
13,CCC(C)N1c2ccccc2C(=O)N(C)c2cnc(Nc3ccc(C(=O)N4CCC(N5CCN(C)CC5)CC4)cc3OC)nc21 (configuration not stated) (2.5 µM),inactive: 0
14,COc1cc(Nc2ncc(F)c(Nc3ccc4c(n3)NC(=O)C(C)(C)O4)n2)cc(OC)c1OC (10 µM),inactive: 0
15,NS(=O)(=O)c1ccc(-n2nc(C(F)(F)F)cc2-c2ccc(Cl)cc2)cc1 (10 µM),inactive: 0
16,Cc1c(NC(=O)c2cccn(-c3ccc(F)cc3)c2=O)ccc(Oc2ccnc(NC(=O)C3CC3)c2)c1C (2 µM),inactive: 0
17,c1ccc(-c2[nH]ncc2-c2ccnc3ccccc23)nc1 (10 µM),inactive: 0
18,CN(C)CCCOc1ccc(-c2ccc3ncc4c(c3c2)n(C2CCOCC2)c(=O)n4C)cn1 (2 µM),inactive: 0
19,COc1cc(Nc2ncc(F)c(Nc3ccc4c(n3)NC(=O)C(C)(C)O4)n2)cc(OC)c1OC [R406 (free base)] (10 µM),inactive: 0
20,OCCn1cc(-c2ccc3c(c2)CC/C3=N\O)c(-c2ccncc2)n1 (10 µM),inactive: 0

row,Structure (SMILES),kinase-Nluc reporter destabilization hit call
1,C[C@@H]1CCN(C(=O)CC#N)C[C@@H]1N(C)c1ncnc2[nH]ccc12 [Tofacitinib] (10 µM),inactive: 0
2,C[C@@H]1CCN(C(=O)CC#N)C[C@@H]1N(C)c1ncnc2[nH]ccc12 [Tofacitinib (citrate)] (10 µM),inactive: 0
3,FC(F)(c1ccc2ncccc2c1)c1nnc2ccc(-c3ccncc3)nn12 (10 µM),inactive: 0
4,O=C1NC(=O)/C(=C\c2cccc(C(F)(F)F)c2)S1 (2.5 µM),inactive: 0
5,N#CCC1CCN(c2nc(Nc3ccc(N4CCC(O)CC4)cc3)c3c(=O)[nH]ncc3n2)CC1 [Gusacitinib] (10 µM),inactive: 0
6,Nc1ncnc2c1c(-c1cccc(OCc3ccccc3)c1)cn2C1CC(CN2CCC2)C1 (configuration not stated) (2.5 µM),inactive: 0
7,CCNc1nc(Nc2cc(F)c(C(=O)N3CCOCC3)cc2OC)ncc1C(F)(F)F [GNE-7915 (tosylate)] (10 µM),inactive: 0
8,Cn1cnc2c(F)c(Nc3ccc(Br)cc3Cl)c(C(=O)NOCCO)cc21 [Selumetinib] (10 µM),inactive: 0
9,CCN1CCN(Cc2ccc(-c3cc4c(N[C@H](C)c5ccccc5)ncnc4[nH]3)cc2)CC1 (2.5 µM),inactive: 0
10,O=C(N/N=C/c1coc2ccccc2c1=O)c1cccnc1 (10 µM),inactive: 0
11,O=Nc1c(-c2c(O)[nH]c3ccc(F)cc23)[nH]c2ccccc12 [5'-Fluoroindirubinoxime] (10 µM),inactive: 0
12,CC(=O)NC1CC(n2cnc(NC(=O)Cc3ccc4ccccc4c3)c2)C1 (configuration not stated) (10 µM),inactive: 0
13,O=C(CSC1=NCCN1)NC1CCCCCC1 [ICCB-19 (hydrochloride)] (2.5 µM),inactive: 0
14,N#Cc1c(C2CCNCC2)cc(-c2c(O)cccc2OCC2CC2)nc1N [ACHP (Hydrochloride)] (10 µM),inactive: 0
15,CCOC(=O)N1CCN(C(=O)[C@H](Cc2cccc(C(=N)N)c2)NS(=O)(=O)c2c(C(C)C)cc(C(C)C)cc2C(C)C)CC1 (10 µM),inactive: 0
16,CN1CCN(c2cnc3c(C4CCN(C(=O)c5ccc(OC(F)(F)F)cc5N)CC4)ncnc3c2)CC1 (10 µM),inactive: 0
17,Cc1[nH]c(/C=C2\C(=O)Nc3ccccc32)c(C)c1CCC(=O)O [Orantinib] (10 µM),inactive: 0
18,Cn1nccc1Nc1nccc(-c2ccn([C@H](CO)c3ccc(Cl)c(F)c3)c(=O)c2)n1 [Ravoxertinib hydrochloride] (10 µM),inactive: 0
19,CCCCCCCCCCCCC/C=C/[C@@H](O)[C@@H](N)CO [D-erythro-Sphingosine] (2.5 µM),inactive: 0

# Reference: the supplement of paper PMC12823440, “Inhibitors supercharge kinase turnover through native proteolytic circuits” (Nature, 2025)
